The list shows a part of the results.

By UniProt entry, the sequences of proteins in these tests, tags left out.
UniProt Q0JBA9, entry or part of it: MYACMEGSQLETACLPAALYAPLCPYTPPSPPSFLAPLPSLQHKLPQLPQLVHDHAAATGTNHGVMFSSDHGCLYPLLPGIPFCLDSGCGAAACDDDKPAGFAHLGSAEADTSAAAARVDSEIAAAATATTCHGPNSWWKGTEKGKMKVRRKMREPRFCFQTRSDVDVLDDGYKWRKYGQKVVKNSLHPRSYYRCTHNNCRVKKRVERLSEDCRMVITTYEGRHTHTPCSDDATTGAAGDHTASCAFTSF

In this assay the target is OsWRKY34 (Oryza sativa, UniProt Q0JBA9 1-250). As to the kind of experiment: protein-binding microarray (RPBM); PBS, 2% BSA, 51.3 ng/ul salmon testes DNA, 50 uM zinc acetate, 200 nM TF, 25 C, 1 h; high values mean tight binding. As to conditions: protein: recombinant; tags: N-terminal polyhistidine and DsRed monomer fusion (pET32a); label: CyDye5-dUTP incorporated in the synthesized complementary strand; 3' TTTTT single-stranded linker to array surface; dsDNA, one strand shown. In a few lines:
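The binding signal is fluorescence intensity per array feature (arbitrary units). Readings came from an Axon 4000B scanner after a washed, 2% BSA-blocked, double-stranded custom Agilent array had been incubated for 1 h at 25 °C with 200 nM protein and 50 µM zinc acetate. The protein was a Ni–NTA-purified transcription factor fused N-terminally to polyhistidine and DsRed, expressed in E. coli BL21-CodonPlus.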
On to “ATCATCTCGGTCCAAAGCCGCATTTGACCGTGGTCTTGCCCGGAGTCACCTAGTGCAG”, for which the binding signal is 12000 fluorescence intensity (a.u.). The figure for “GGTTCTAGTGAGCTTTATCTCTTTTTTTCATGTGATTTTTCGGAGTCACCTAGTGCAG” is 10200 fluorescence intensity (a.u.).

“ACTTTTTTCTTCAAACTTCCAATTTTAGTCAAACTTTCAACGGAGTCACCTAGTGCAG”: the binding signal was 8550 fluorescence intensity (a.u.). The value for “GCATGCGCGGGAGAGGGCAAAGGGTGGGGCCGGGCTGTCGCGGAGTCACCTAGTGCAG” was 13000 fluorescence intensity (a.u.). For “ATGTTTTCCGTGTGTTTTAGCTCAGTTATGTTCTGTTCAACGGAGTCACCTAGTGCAG”, the binding signal was 12600 fluorescence intensity (a.u.). The value for “TTTTATCTACTTTAAATATATTTAGCCTTTTACTTTTATACGGAGTCACCTAGTGCAG” was 8530 fluorescence intensity (a.u.).

For “CAGGGCGGCGTTCTCGATGTGCTCGGGGCAGGGGCGGACGCGGAGTCACCTAGTGCAG”, the binding signal is 16100 fluorescence intensity (a.u.). “TCCTACAACTCTCGTATTTCCAATTTTCCAAACAACTATCCGGAGTCACCTAGTGCAG”: the binding signal is 8160 fluorescence intensity (a.u.). In the case of “CTCATCTACCTCCTCAGCTTCTTCGGCATCGCCTTCGTGCCGGAGTCACCTAGTGCAG”, the binding signal is 8720 fluorescence intensity (a.u.). With “TGCCTCCGGGGATGCCGTCACTTTCTCGTTCCCCAACTCCCGGAGTCACCTAGTGCAG”, the binding signal is 12200 fluorescence intensity (a.u.). The value for “AATTACCCATCTTTGCACTTCTATATATAATATATGCAACCGGAGTCACCTAGTGCAG” was 11000 fluorescence intensity (a.u.); that for “CTCCCACCGCCCACCGCCCACCGCCGCGCCGGCCATGGCTCGGAGTCACCTAGTGCAG” was 9840 fluorescence intensity (a.u.). The figure for “CCTCTCCTCTCGCTCCGCTCTCTCTCCTGCCCAAGCGACGCGGAGTCACCTAGTGCAG” is 10200 fluorescence intensity (a.u.); for “TCCCGTACCCCTCCCTCCAGCCCACCAACGCCCTCGAGAACGGAGTCACCTAGTGCAG” it is 8290 fluorescence intensity (a.u.). The value for “CCACTATTCTTTCCAGTTTCCACACACCTTGCTCCATCCACGGAGTCACCTAGTGCAG” was 8150 fluorescence intensity (a.u.); that for “TCTGACTTTTCTTTTTTTGTTTTCATGTTTTTTCACCCTTCGGAGTCACCTAGTGCAG” was 12700 fluorescence intensity (a.u.); that for “TGCTGTTATTTTCGGATGGATTTGAGTTTTATGAAACTCACGGAGTCACCTAGTGCAG” was 8690 fluorescence intensity (a.u.).

Turning to “TTGGTGCTGTTGGTGCGTGGGTGGTGGTATAATTTTCTTTCGGAGTCACCTAGTGCAG”, the binding signal was 11900 fluorescence intensity (a.u.). On to “CCACTTGGATGTAATTGTCTGGGTTTTCTCTCAATTTATACGGAGTCACCTAGTGCAG”, for which the binding signal is 8920 fluorescence intensity (a.u.). The value for “ATTTTTTCCTCTAATTAAGTCATATCACATCAATTGTTTTCGGAGTCACCTAGTGCAG” was 10200 fluorescence intensity (a.u.); that for “TGGAGGGTGTCGATATGGTTGGTAGTTGCTTGGAGGACCACGGAGTCACCTAGTGCAG” was 8100 fluorescence intensity (a.u.); that for “ATAATGGGAAATGGAGGGTGGGATTGGGATTAGAAAATGACGGAGTCACCTAGTGCAG” was 9470 fluorescence intensity (a.u.). The value for “GCTGGGGAAGTGAGGATTGATCGATTGGGGATTGGGGATTCGGAGTCACCTAGTGCAG” was 16000 fluorescence intensity (a.u.).

Take “CCGCCGCGGCCGATCTCTCTAGGGCTTCCAACCTCGCCGGCGGAGTCACCTAGTGCAG”: the binding signal was 8300 fluorescence intensity (a.u.). Take “AAACCTCTCTTCTCTCTCTCCACCGCCGCCGCCGGTCTGCCGGAGTCACCTAGTGCAG”: the binding signal is 8770 fluorescence intensity (a.u.). As to “CTACCTCTATATTTTAATTTTAATGTATGACGTCGTTGACCGGAGTCACCTAGTGCAG”, the binding signal was 11100 fluorescence intensity (a.u.). Regarding “TACGCCTCCGCTGTCACAAGCGTATTACTATCTATTACGCCGGAGTCACCTAGTGCAG”, the binding signal was 9090 fluorescence intensity (a.u.). Consider “CGACTTTCTGCAAGCGATGGTTGACTTGTACATAGTAATGCGGAGTCACCTAGTGCAG”, for which the binding signal was 8960 fluorescence intensity (a.u.). The figure for “CTATCGATCTCTCTCTCTCCTCTTCGGTTCCAGCTCTTCTCGGAGTCACCTAGTGCAG” is 9500 fluorescence intensity (a.u.); for “GGTGGTGGTGGCGCGGCCGCTCCAACAATCGCGAGGTGAGCGGAGTCACCTAGTGCAG” it is 8650 fluorescence intensity (a.u.); for “TGGTATGAATGGATAATTTGTTTCTGTCTTATGTGTTGCTCGGAGTCACCTAGTGCAG” it is 9810 fluorescence intensity (a.u.). Take “GAGGAGTGGGAGGAAAATGAGTGGTGGGGAAAGGATAGGGCGGAGTCACCTAGTGCAG”: the binding signal was 8630 fluorescence intensity (a.u.). The figure for “GGTGGGCGCATCGCGTTTTTGCGGTTTTTGCTTCTCTTCTCGGAGTCACCTAGTGCAG” is 13000 fluorescence intensity (a.u.). The figure for “GTGCCTGTTTGCTTCAGTGATGCTGGTGGTGGTTGCCTAACGGAGTCACCTAGTGCAG” is 9460 fluorescence intensity (a.u.); for “TTCATTGCTGTCATTTTTCCGTCGAGTTCCATCTCTTGATCGGAGTCACCTAGTGCAG” it is 11200 fluorescence intensity (a.u.); for “ACACCTATAGACCCAGACTGCCAAACCCAGTCTTTTGTATCGGAGTCACCTAGTGCAG” it is 8300 fluorescence intensity (a.u.). In the case of “CTCCCAGACCCCTTTCTCTTTAGGTGTGCACATTCTGTCCCGGAGTCACCTAGTGCAG”, the binding signal is 8600 fluorescence intensity (a.u.). As to “CTAGCTACCCTTCGTGCCCAACAGCCCATACCTTACCATGCGGAGTCACCTAGTGCAG”, the binding signal is 8560 fluorescence intensity (a.u.).

For the sequence “TTAGGGGTGGAGATTTCTGGTTTTGTGGTTAAGCAACCTTCGGAGTCACCTAGTGCAG”, the binding signal is 14700 fluorescence intensity (a.u.). The value for “CTTAGTGGTTTTTTTTTCTCACATGGCACAAATCTCAAGACGGAGTCACCTAGTGCAG” was 9290 fluorescence intensity (a.u.). In the case of “TATTATAATTTATTTTGTTGTAAGTTGTTTTATCACTTAACGGAGTCACCTAGTGCAG”, the binding signal is 10400 fluorescence intensity (a.u.).

As for “AATCTCTATCGATCTGTTTGTTTACATGTTCAGTTAAAGGCGGAGTCACCTAGTGCAG”, the binding signal was 9240 fluorescence intensity (a.u.).

The values above are taken from paper PMC7819943, “Rice protein-binding microarrays: a tool to detect cis-acting elements near promoter regions in rice”.
